Tested on: HEK293 cells
Assay: Measurement of receptor protein level on cell membrane (flow cytometry), receptor gene co-transfected with RTP1S
Type: cell-based, human
Conditions: for change in membrane expression level by the consensus design method: consensus receptor compared with original receptor, HEK293 cells, average values of three experiments; for Original Membrane expression level (%): original receptor on HEK293 cells, PE signal normalised, NC (no receptor) 0%, PC (FLAG-M2 acetylcholine receptor) 100%, average of three experiments

Molecule	change in membrane expression level by the consensus design method	Original Membrane expression level (%)
VN1R5: original human vomeronasal receptor VN1R5 (protein, listed as Homo sapiens) MLKLVIIENMAEIMLFSLDLLLFSTDILCFNFPSKMIKLPGFITIQIFFYPQASFGISANTILLLFHIFTFVFSHRSKSIDMIISHLSLIHILLLFTQAILVSLDFFGSQNTQDDLRYKVIVFLNKVMRGLSICTPCLLSVLQAIISPSIFSLAKLKHPSASHILGFFLFSWVLNMFIGVIFCCTLRLPPVKRGQSSVCHTALFLFAHELHPQETVFHTNDFEGCHLYRVHGPLKRLHGDYFIQTIRGYLSAFTQPACPRVSPVKRASQAILLLVSFVFTYWVDFTFSFSGGVTWINDSLLVWLQVIVANSYAAISPLMLIYADNQIFKTLQMLWFKYLSPPKLMLKFNRQCGSTKK	increase	0.18
TAS2R8: original human bitterness receptor TAS2R8 (protein, listed as Homo sapiens) MFSPADNIFIILITGEFILGILGNGYIALVNWIDWIKKKKISTVDYILTNLVIARICLISVMVVNGIVIVLNPDVYTKNKQQIVIFTFWTFANYLNMWITTCLNVFYFLKIASSSHPLFLWLKWKIDMVVHWILLGCFAISLLVSLIAAIVLSCDYRFHAIAKHKRNITEMFHVSKIPYFEPLTLFNLFAIVPFIVSLISFFLLVRSLWRHTKQIKLYATGSRDPSTEVHVRAIKTMTSFIFFFFLYYISSILMTFSYLMTKYKLAVEFGEIAAILYPLGHSLILIVLNNKLRQTFVRMLTCRKIACMI	increase	28.58
TAS2R16: original human bitterness receptor TAS2R16 (protein, listed as Homo sapiens) MIPIQLTVFFMIIYVLESLTIIVQSSLIVAVLGREWLQVRRLMPVDMILISLGISRFCLQWASMLNNFCSYFNLNYVLCNLTITWEFFNILTFWLNSLLTVFYCIKVSSFTHHIFLWLRWRILRLFPWILLGSLMITCVTIIPSAIGNYIQIQLLTMEHLPRNSTVTDKLENFHQYQFQAHTVALVIPFILFLASTIFLMASLTKQIQHHSTGHCNPSMKARFTALRSLAVLFIVFTSYFLTILITIIGTLFDKRCWLWVWEAFVYAFILMHSTSLMLSSPTLKRILKGKC	increase	36.00
TAS2R38: original human bitterness receptor TAS2R38 (protein, listed as Homo sapiens) MLTLTRIRTVSYEVRSTFLFISVLEFAVGFLTNAFVFLVNFWDVVKRQALSNSDCVLLCLSISRLFLHGLLFLSAIQLTHFQKLSEPLNHSYQAIIMLWMIANQANLWLAACLSLLYCSKLIRFSHTFLICLASWVSRKISQMLLGIILCSCICTVLCVWCFFSRPHFTVTTVLFMNNNTRLNWQIKDLNLFYSFLFCYLWSVPPFLLFLVSSGMLTVSLGRHMRTMKVYTRNSRDPSLEAHIKALKSLVSFFCFFVISSCAAFISVPLLILWRDKIGVMVCVGIMAACPSGHAAILISGNAKLRRAVMTILLWAQSSLKVRADHKADSRTLC	increase	2.63
TAS2R42: original human bitterness receptor TAS2R42 (protein, listed as Homo sapiens) MATELDKIFLILAIAEFIISMLGNVFIGLVNCSEGIKNQKVFSADFILTCLAISTIGQLLVILFDSFLVGLASHLYTTYRLGKTVIMLWHMTNHLTTWLATCLSIFYFFKIAHFPHSLFLWLRWRMNGMIVMLLILSLFLLIFDSLVLEIFIDISLNIIDKSNLTLYLDESKTLYDKLSILKTLLSLTSFIPFSLFLTSLLFLFLSLVRHTRNLKLSSLGSRDSSTEAHRRAMKMVMSFLFLFIVHFFSLQVANWIFFMLWNNKCIKFVMLALNAFPSCHSFILILGNSKLQQTAVRLLWHLRNYTKTPNPLPL	increase	1.66

Reference: patent publication US20250353895A1, “METHOD FOR ANALYZING G-PROTEIN CONJUGATED RECEPTOR” (Kao Corporation, priority 2022, published 2025)
